Assay results reported in US20120202233A1.
Results are given in words; binding and its absence hold for the method and conditions named. In cells and extracts the contact can be indirect. Some results given as binding are weak or reduced against the parent protein; the word gives no strength. Tags and fused reporters may be left off the sequences shown.

Protein sequences, listed by entry. Tags and fused reporters are not part of them. Lines headed by an entry give the natural chain unless they say otherwise; changes in a name come on top.
UniProt P15056: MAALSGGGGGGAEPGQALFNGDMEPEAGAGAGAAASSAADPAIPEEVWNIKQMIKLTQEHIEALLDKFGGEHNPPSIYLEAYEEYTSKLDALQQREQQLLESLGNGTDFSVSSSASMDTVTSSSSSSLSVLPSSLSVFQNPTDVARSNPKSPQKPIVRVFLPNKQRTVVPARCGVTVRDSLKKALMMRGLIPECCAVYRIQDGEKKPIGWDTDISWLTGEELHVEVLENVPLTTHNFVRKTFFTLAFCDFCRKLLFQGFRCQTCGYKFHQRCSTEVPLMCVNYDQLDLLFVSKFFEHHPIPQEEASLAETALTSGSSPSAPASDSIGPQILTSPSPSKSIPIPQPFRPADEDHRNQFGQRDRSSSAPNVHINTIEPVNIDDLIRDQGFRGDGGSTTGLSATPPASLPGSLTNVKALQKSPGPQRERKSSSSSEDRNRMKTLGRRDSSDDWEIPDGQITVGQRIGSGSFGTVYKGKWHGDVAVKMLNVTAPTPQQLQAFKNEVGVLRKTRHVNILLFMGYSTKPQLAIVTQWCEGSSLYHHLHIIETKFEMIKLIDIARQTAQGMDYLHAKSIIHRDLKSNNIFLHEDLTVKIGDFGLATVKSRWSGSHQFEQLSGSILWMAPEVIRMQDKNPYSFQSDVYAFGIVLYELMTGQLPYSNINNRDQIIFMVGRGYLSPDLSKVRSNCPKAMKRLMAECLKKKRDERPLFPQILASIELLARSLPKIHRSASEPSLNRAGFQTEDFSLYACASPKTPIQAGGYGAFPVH

Molecular target: BRAF (wild type) (Homo sapiens (Human)) (UniProt P15056)
Experiment: co-immunoprecipitation: FLAG-KSR IP, BRAF blot (FIG. 2G)

B1: A587F FLAG-KSR (enzyme, mouse, UniProt Q61097 1-873, looked up, not shown: small tags and cut ends)
chain: MDRAALRAAAMGEKKEGGGGGAAADGGAGAAVSRALQQCGQLQKLIDISIGSLRGLRTKCSVSNDLTQQEIRTLEAKLVKYICKQQQSKLSVTPSDRTAELNSYPRFSDWLYIFNVRPEVVQEIPQELTLDALLEMDEAKAKEMLRRWGASTEECSRLQQALTCLRKVTGLGGEHKMDSGWSSTDARDSSLGPPMDMLSSLGRAGASTQGPRSISVSALPASDSPVPGLSEGLSDSCIPLHTSGRLTPRALHSFITPPTTPQLRRHAKLKPPRTPPPPSRKVFQLLPSFPTLTRSKSHESQLGNRIDDVTPMKFELPHGSPQLVRRDIGLSVTHRFSTKSWLSQVCNVCQKSMIFGVKCKHCRLKCHNKCTKEAPACRITFLPLARLRRTESVPSDINNPVDRAAEPHFGTLPKALTKKEHPPAMNLDSSSNPSSTTSSTPSSPAPFLTSSNPSSATTPPNPSPGQRDSRFSFPDISACSQAAPLSSTADSTRLDDQPKTDVLGVHEAEAEEPEAGKSEAEDDEEDEVDDLPSSRRPWRGPISRKASQTSVYLQEWDIPFEQVELGEPIGQGRWGRVHRGRWHGEVFIRLLEMDGHNQDHLKLFKKEVMNYRQTRHENVVLFMGACMNPPHLAIITSFCKGRTLHSFVRDPKTSLDINKTRQIAQEIIKGMGYLHAKGIVHKDLKSKNVFYDNGKVVITDFGLFGISGVVREERRENQLKLSHDWLCYLAPEIVREMIPGRDEDQLPFSKAADVYAFGTVWYELQARDWPFKHQPAEALIWQIGSGEGVRRVLASVSLGKEVGEILSACWAFDLQERPSFSLLMDMLERLPKLNRRLSHPGHFWKSADINSSKVMPRFERFGLGTLESGNPKM
- binding: binds
